Molecules are shown by their SMILES. Hit rate of the full screen: of about 2,200 compounds, about 15 (0.7%) were called active.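 The calls were made as follows: active = fitted half-maximal concentration for loss of luminescence signal no more than a set limit of log units above the top tested concentration; inconclusive = flat fit with 30 to 70% signal loss, or invalid fit; inactive = half-maximal concentration above that set limit.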 This is one part of the list.

The assay is described as follows: inhibitors of ADP-Glo detection reagents, dose response, artefact control for GSK3beta inhibitor project, biochemical, luminescence, cell-free, homogeneous (AID 434947). As to conditions: 5 uM ADP.
As to `CC(=O)Nc1ccc(S(=O)(=O)N(Cc2cccnc2)Cc2cc3ccccc3[nH]c2=O)cc1`, the EC50 is inactive: > 30 µM.

For the molecule `Cc1cccc(COc2ccc(/C=N/NC(=O)c3nnn(-c4nonc4N)c3CN3CCCCC3)cc2)c1`, the EC50 is inactive: > 30 µM. The same measure for `O=C(Nc1cccc(-c2cnc3ccccc3n2)c1)c1ccccc1`: inactive: > 30 µM; for `O=C(Nc1ccccc1)Nc1ncc([N+](=O)[O-])s1`: inactive: > 30 µM. The same measure for `COc1cccc(NC(=O)NNS(=O)(=O)c2ccc(OC)cc2OC)c1`: inactive: > 30 µM; for `O=C(Nc1ccccc1)Nc1ccccn1`: inactive: > 30 µM.

`O=C1OCCC1Sc1nnc(-c2ccc(O)cc2)o1` (configuration not stated): the EC50 was inactive: > 30 µM. As for `CC1(C)Nc2ccc(O)cc2-c2c1ssc2=S`, the EC50 is inactive: > 30 µM. The same measure for `Nc1nonc1-n1nnc(C(=O)N/N=C/c2cccc(F)c2)c1CN1CCCCCC1`: inactive: > 30 µM; for `COc1cccc(/C=C2/Sc3ccc(C(=O)NCCCN4CCCC4)cc3NC2=O)c1`: inactive: > 30 µM; for `CN1CC(=O)Nc2ccc([N+](=O)[O-])cc2C1=O`: inactive: > 30 µM. The same measure for `COc1ccccc1-c1cc2ccccc2[nH]1`: inactive: > 30 µM; for `CN1CCc2c(sc3c2c(=O)n(-c2ccc(Cl)cc2)c2nncn32)C1`: inactive: > 30 µM. The same measure for `COc1cccc(N(CC(=O)NCC2CCCO2)C(=O)CCC(=O)Nc2nccs2)c1` (configuration not stated): inactive: > 30 µM; for `CN1CCc2c(sc3c2c(=O)n(-c2ccccc2)c2nncn32)C1`: inactive: > 30 µM. On to `O=c1[nH]cnc2c1ncn2[C@@H]1O[C@H](CO)[C@@H](O)[C@H]1O`, for which the EC50 is inactive: > 30 µM. In the case of `COc1cc(/C=C2\Oc3cc(O)ccc3C2=O)ccc1O`, the EC50 was inactive: > 30 µM. The same measure for `Cc1ccc(-c2nn(-c3ccccc3)cc2CO)cc1`: inactive: > 30 µM; for `CCOc1ccc(-c2nnc3ccc(SC)nn23)cc1`: inactive: > 30 µM; for `COc1ccc(Nc2oc(COc3ccccc3F)nc2C#N)cc1`: inactive: > 30 µM. The same measure for `O=C(O)c1cccc(-c2ccc(/C=N/Nc3ccc([N+](=O)[O-])cc3)o2)c1`: inactive: > 30 µM; for `COCCCNc1nc(N)c([N+](=O)[O-])c(NCc2ccccc2)n1`: inactive: > 30 µM.

Take `Cn1c(=S)n(CCC(=O)O)c2ccccc21`: the EC50 is inactive: > 30 µM. The same measure for `COc1ccc(/C=C2\SC(=NCc3ccccc3)NC2=O)cc1`: inactive: > 30 µM; for `CN(C)c1ccc(N=Nc2ccc(S(N)(=O)=O)cc2)cc1`: inactive: > 30 µM. Take `Nc1nc(NCCCN2CCOCC2)nc(Nc2ccc(Cl)cc2)c1[N+](=O)[O-]`: the EC50 was inactive: > 30 µM.

Regarding `Oc1ccc(/C=N/Nc2ncc(Br)cn2)c(O)c1`, the EC50 was inactive: > 30 µM. The same measure for `COc1cc(C(=O)NC(=S)N(CCc2ccccc2)CCc2ccccc2)cc(OC)c1OC`: inactive: > 30 µM; for `O=C(O)c1cccc(Nc2nc(-c3ccccc3)nc3ccccc23)c1`: inactive: > 30 µM; for `c1ccc(-n2cnnc2SCc2cn3cccnc3n2)cc1`: inactive: > 30 µM. The same measure for `Fc1ccc(CSc2nnc(-c3cccs3)o2)cc1`: inactive: > 30 µM; for `COc1ccc(-c2nnc(NC(=O)C3=COCCO3)o2)cc1`: inactive: > 30 µM; for `Cn1c(=O)c2[nH]c(CN3CCN(Cc4ccccc4)CC3)nc2n(C)c1=O`: inactive: > 30 µM. The same measure for `Cc1cccc(CSc2ccc3nnc(-c4cccs4)n3n2)c1`: inactive: > 30 µM; for `C/C(=N\NC(=O)c1ccc(C(=O)N/N=C(\C)c2ccco2)o1)c1ccco1`: inactive: > 30 µM; for `O=C(Nc1cccc2c1C(=O)NC2=O)c1cccnc1Cl`: inactive: > 30 µM. For the molecule `COCCn1c(SCC(=O)Nc2ccccc2OC)nc2ccccc21`, the EC50 is inactive: > 30 µM. The same measure for `Cc1c(CN(C)C)c2c(n1C)C(=O)c1ccc(Br)cc1-2`: inactive: > 30 µM; for `Nc1nc(Nc2ccccc2)sc1C(=O)c1ccccc1`: inactive: > 30 µM.

On to `S=c1[nH]c(-c2ccccc2)cn1/N=C/c1ccncc1`, for which the EC50 is inactive: > 30 µM. The same measure for `COCc1c(C(N)=O)nnn1-c1nonc1N`: inactive: > 30 µM; for `NC(=O)c1c(NC(=O)CCCn2cnc([N+](=O)[O-])n2)sc2c1CCCC2`: inactive: > 30 µM; for `CCOc1ccc2c(c1)C(=O)C(=O)N2CC1COc2ccccc2O1` (configuration not stated): inactive: > 30 µM.

Consider `Cc1ccccc1NC(=O)CN1C(=O)c2ccccc2C1=O`, for which the EC50 was inactive: > 30 µM. In the case of `CCOc1cc(C2C3=C(CC(C)(C)CC3=O)Nc3n[nH]c(C)c32)ccc1O` (configuration not stated), the EC50 was inactive: > 30 µM. Regarding `COCCn1c(SCC(=O)NC(=O)NCc2ccccc2)nc2ccccc21`, the EC50 was inactive: > 30 µM. The same measure for `COc1cccc(NC(=O)CN(C)C(=O)c2cc(-c3ccc(F)cc3)nc3ccccc23)c1`: inactive: > 30 µM. As to `Cc1ccc(Nc2nc(NCCCN3CCOCC3)nc(N)c2[N+](=O)[O-])cc1`, the EC50 is inactive: > 30 µM.

With `CC(C)=CCc1c(O)ccc(C2COc3c(CC=C(C)C)c(O)cc(O)c3C2=O)c1O` (configuration not stated), the EC50 is inactive: > 30 µM. The same measure for `NS(=O)(=O)c1ccc(-c2ccc(/C=C3\NC(=S)NC3=O)o2)cc1`: inactive: > 30 µM; for `Cc1ccc(-c2nn(-c3ccccc3)cc2/C=N/O)cc1`: inactive: > 30 µM; for `O=C(CSc1n[nH]c(=O)[nH]c1=O)c1ccc(Cl)cc1Cl`: inactive: > 30 µM. The same measure for `CCN1/C(=C/c2ccc3cccc(C)c3[n+]2CC)Sc2ccccc21`: inactive: > 30 µM; for `CC(=O)Nc1ccc(S(=O)(=O)Nc2ccc3c(c2)OCCO3)cc1Cl`: inactive: > 30 µM.

Regarding `Nc1ncnc2c1ncn2[C@@H]1O[C@H](CO)[C@@H](O)[C@@H]1O`, the EC50 is inactive: > 30 µM. For the molecule `Cc1ccc(-c2nn(-c3ccccc3)cc2/C=N/NC(=O)c2ccc(Br)o2)cc1`, the EC50 was inactive: > 30 µM. Take `COc1ccc(-c2cc(-c3ccco3)[nH]c(=O)c2C#N)cc1`: the EC50 is inactive: > 30 µM. The same measure for `O=C(NCc1cccs1)c1cc(C2CC2)on1`: inactive: > 30 µM. The same measure for `CCOc1ccc(N2C(=O)S/C(=C\c3cccn3C)C2=O)cc1`: inactive: > 30 µM. With `CCOC(=O)CSc1nnc(-c2cccs2)n1-c1ccccc1`, the EC50 is inactive: > 30 µM. The same measure for `COc1ccc2c(c1)-c1c(ssc1=S)C(C)(C)N2S(=O)(=O)c1ccc(C)cc1`: inactive: > 30 µM; for `Cc1cc(NC(=O)CSc2ccc3nnc(-c4cccs4)n3n2)no1`: inactive: > 30 µM; for `CN(C)c1nc(-c2cccnc2)nc(-c2ccccc2)c1C#N`: inactive: > 30 µM. The same measure for `CCOC(=O)c1nnn(-c2nonc2N)c1-c1cccs1`: inactive: > 30 µM. The same measure for `O=C(COc1ccccc1[N+](=O)[O-])N/N=C/c1ccc(O)cc1`: inactive: > 30 µM. For `Cc1oc2ccc(OC(=O)c3cccs3)cc2c1C(=O)OC(C)C`, the EC50 was inactive: > 30 µM. The same measure for `Nc1nonc1-n1nnc(C(=O)N/N=C/c2ccoc2)c1CSc1ccc(Cl)cc1`: inactive: > 30 µM; for `CN(Cc1c(C(=O)N/N=C/c2ccccc2F)nnn1-c1nonc1N)c1ccccc1`: inactive: > 30 µM.

Turning to `O=C(Nc1ccc(-c2nc3ccccc3o2)cc1)c1ccc(N2CCOCC2)c([N+](=O)[O-])c1`, the EC50 was inactive: > 30 µM. With `OCC1(Cc2ccccc2)CCN(Cc2ccc(-c3ccco3)cc2)CC1`, the EC50 is inactive: > 30 µM. Take `COCc1c(C(=O)N/N=C\c2ccccn2)nnn1-c1nonc1N`: the EC50 is inactive: > 30 µM. The same measure for `CCCc1cc(O)c2c(C)cc(=O)oc2c1`: inactive: > 30 µM. The same measure for `CCOc1ccc2c(c1)C(NC(C)=O)C(=O)N2CCN1CCOCC1` (configuration not stated): inactive: > 30 µM; for `Cc1cc([N+](=O)[O-])c(C)cc1-c1ccc(/C=N/n2cnnc2)o1`: inactive: > 30 µM. In the case of `CC1CC(=O)Nc2ccc([N+](=O)[O-])cc2N1C` (configuration not stated), the EC50 was inactive: > 30 µM.

With `Cc1ccccc1N(CC(=O)N/N=C/c1cc(Br)c(C)o1)S(C)(=O)=O`, the EC50 was inactive: > 30 µM. The same measure for `Cc1cc(C)c2nc(N(CCN(C)C)C(=O)c3ccc(S(=O)(=O)N(C)CC4CCCO4)cc3)sc2c1` (configuration not stated): inactive: > 30 µM; for `CCCCOc1ccc(/C=C/C(=O)OCC(=O)N2CC(=O)Nc3ccccc32)cc1OCC`: inactive: > 30 µM. The same measure for `CC(C)=CCc1cc([C@@H]2CC(=O)c3ccc(O)c(CC=C(C)C)c3O2)ccc1O`: inactive: > 30 µM; for `CCn1nc(NC(=O)Cc2ccc(OC)cc2)c2cc3cc(C)ccc3nc21`: inactive: > 30 µM; for `NNc1nccc(Nc2ccccc2C(=O)O)n1`: inactive: > 30 µM. Turning to `CC(C)(C)c1ccc(OCC(=O)NCCN2CCCC2)cc1`, the EC50 was inactive: > 30 µM. The same measure for `Nc1nonc1-n1nnc(C(=O)N/N=C/c2ccc(Cl)cc2Cl)c1CN1CCCC1`: inactive: > 30 µM; for `COc1ccc(C2C3=C(CC(C)(C)CC3=O)Nc3c2c(=O)[nH]c2nc(C)nn32)cc1` (configuration not stated): inactive: > 30 µM; for `CCOC(=O)c1ccc(NC(=O)CN(C)S(=O)(=O)c2ccc(Br)s2)cc1`: inactive: > 30 µM. The same measure for `Nc1nc(NCCOCCO)nc(Nc2cccc(F)c2)c1[N+](=O)[O-]`: inactive: > 30 µM; for `CN(C)CCCNc1ccc(-c2cc(Nc3cccc(Cl)c3)ncn2)cn1`: inactive: > 30 µM; for `O=[N+]([O-])c1cc(/C=N/O)ccc1SCc1ccccc1`: inactive: > 30 µM. The same measure for `COc1cc(C2C(C(=O)c3cccs3)=C(O)C(=O)N2CCN2CCOCC2)ccc1OCCC(C)C` (configuration not stated): inactive: > 30 µM; for `Nc1ncnc2c1ncn2C1OC(CO)C(O)C1N` (configuration not stated): inactive: > 30 µM.

Regarding `CN1/C(=C/C=C(/C#N)C(N)=O)C(C)(C)c2ccccc21`, the EC50 was inactive: > 30 µM. The same measure for `CCOC(=O)CNC(=O)CSc1ccc2nnc(-c3ccc(F)cc3)n2n1`: inactive: > 30 µM.

The values are drawn from PubChem BioAssay AID434947 (Broad Institute, 2010).
